The list shows a part of the results. Single values are uncertain here, since repeats match poorly.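 U2OS cells carrying ACE2 were mixed with U2OS cells carrying full-length spike, and fusion was scored by imaging as the share of nuclei showing both cell types' fluorescent markers. A compound counts as an inhibitory hit when it is non-toxic and its fusion z-score falls below -3, meaning more than three standard deviations below the plate's DMSO wells.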
System: U2OS ACE2 x SARS-CoV-2 spike co-culture
Assay: cell-cell fusion (fraction fused) z-score vs plate DMSO control; higher = more fusion
Details: 30 µM; 5 h; toxicity class: non-toxic, passed QC

| Compound | cell-cell fusion (z-score) |
| --- | --- |
| CCOC(=O)OC(C)OC1=C(C(=O)Nc2ccccn2)N(C)S(=O)(=O)c2ccccc21 (centres undefined) | inactive: 1.75 |
| CC(=O)[C@H]1CCC2C3CC=C4C[C@@H](OC(=O)CCC(=O)O)CC[C@]4(C)C3CC[C@@]21C (some centres undefined) | inactive: 2.98 |
| O=C(Nc1cccc(C(=O)Nc2ccc(S(=O)(=O)[O-])c3cc(S(=O)(=O)[O-])cc(S(=O)(=O)[O-])c23)c1)Nc1cccc(C(=O)Nc2ccc(S(=O)(=O)[O-])c3cc(S(=O)(=O)[O-])cc(S(=O)(=O)[O-])c23)c1.[Na+].[Na+].[Na+].[Na+].[Na+].[Na+] | inactive: 3.31 |
| CC(=O)Oc1cccc(C)c1 [meta-CRESYL ACETATE] | inactive: 2.77 |
| CC1=NN(c2cccc(C(=O)O)c2)C(=O)/C1=C\c1ccc(-c2ccc(Cl)c(C(=O)O)c2)o1 | inactive: 2.99 |
| COC(=O)N[C@H](C(=O)N1CC2(CC2)C[C@H]1c1ncc(-c2ccc3c(c2)C(F)(F)c2cc(-c4ccc5nc([C@@H]6[C@H]7CC[C@H](C7)N6C(=O)[C@@H](NC(=O)OC)C(C)C)[nH]c5c4)ccc2-3)[nH]1)C(C)C [Ledipasvir] | inactive: 0.332 |
| Cc1cc(=O)n(-c2ccccc2)n1C | inactive: 1.72 |
| CCOCCn1c(N2CCCN(C)CC2)nc2ccccc21 [Emedastine] | inactive: 2.25 |
| CN1CCC[C@H]1c1cccnc1 [Nicotine] | inactive: 0.962 |
| O=C1c2c(O)cc(O)cc2O[C@H](c2ccc(O)c(O)c2)[C@H]1O (racemic) [(±)-Taxifolin] | inactive: -1.07 |
| Cl.NCc1ccc(S(N)(=O)=O)cc1 | inactive: 0.264 |
| CC(C)NC[C@@H](C(=O)N1CCN(c2ncnc3c2[C@H](C)C[C@H]3O)CC1)c1ccc(Cl)cc1 | inactive: -0.861 |
| Cc1ccc([C@@H]2O[C@H](CO)[C@@H](O)[C@H](O)[C@H]2O)cc1Cc1ccc(-c2ccc(F)cc2)s1 [Canagliflozin] | active: -4.3 |
| C=C(C)C1Cc2c(ccc3c(=O)c4c(oc23)COc2cc(OC)c(OC)cc2-4)O1 (centres undefined) | inactive: 1.92 |
| COc1ccc(Cl)cc1C(=O)NCCc1ccc(S(=O)(=O)NC(=O)NC2CCCCC2)cc1 [Glybenclamide] | inactive: -0.386 |
| Cc1ncc([N+](=O)[O-])n1CCO [Metronidazole] | inactive: 2.46 |
| Cc1ccc(-c2nc3ccc(C)cn3c2CC(=O)N(C)C)cc1 | inactive: 3.47 |
| O=C(CCNNC(=O)c1ccncc1)NCc1ccccc1 | inactive: 2.36 |
| O=C(CCNNC(=O)c1ccncc1)NCc1ccccc1 [Nialamide] | inactive: 1.82 |
| Cc1sc2ccccc2c1CC1=NCCN1.O=C(O)C(=O)O [Benazoline oxalate] | inactive: 1.67 |
| C[C@@H]1O[C@@H](O[C@H]2CC[C@]3(C=O)C4CC[C@]5(C)[C@@H](C6=CC(=O)OC6)CC[C@]5(O)C4CC[C@]3(O)C2)[C@H](O)[C@H](O)[C@H]1O (some centres undefined) | inactive: 0.936 |
| COc1cc(C(=S)N2CCOCC2)ccc1O | inactive: 2.46 |

Quoted from the listing:
Entry for Cc1sc2ccccc2c1CC1=NCCN1.O=C(O)C(=O)O [Benazoline oxalate] under cell-cell fusion (z-score): inactive: 1.67
Entry for CN1CCC[C@H]1c1cccnc1 [Nicotine] under cell-cell fusion (z-score): inactive: 0.962
Entry for O=C1c2c(O)cc(O)cc2O[C@H](c2ccc(O)c(O)c2)[C@H]1O (racemic) [(±)-Taxifolin] under cell-cell fusion (z-score): inactive: -1.07

Following part.

| Compound | cell-cell fusion (z-score) |
| --- | --- |
| CC(C[N+](C)(C)C)OC(N)=O.[Cl-] (centres undefined) | inactive: -0.339 |
| CC(C[N+](C)(C)C)OC(N)=O.[Cl-] (centres undefined) [Bethanechol chloride] | inactive: 1.11 |
| O=C(O)c1ccccc1Nc1cccc(OCc2ccc3ccccc3n2)c1 | inactive: 1.98 |
| O.O=C(Nc1cccnc1)N1CCC(Cc2cccc(Oc3ccc(C(F)(F)F)cn3)c2)CC1 | inactive: -0.789 |
| CCc1cc2c(cc1CC)CC(NC[C@H](O)c1ccc(O)c3[nH]c(=O)ccc13)C2 [Indacaterol] | active: -7.96 |
| C[C@]12CCC3c4ccc(OS(=O)(=O)[O-])cc4CCC3C1CC[C@H]2O.[Na+] (some centres undefined) | inactive: 3.17 |
| CC(C)(O)[C@@H]1CC[C@](C)([C@H]2[C@@H](O)C[C@@]3(C)C4C[C@H](O[C@@H]5O[C@H](CO)[C@@H](O)[C@H](O)[C@H]5O)C5C(C)(C)[C@@H](O[C@@H]6OC[C@@H](O)[C@H](O)[C@H]6O)CC[C@@]56C[C@@]46CC[C@]23C)O1 (some centres undefined) | inactive: 1.84 |
| CO[C@H]1C[C@@H]2CC[C@@H](C)[C@@](O)(O2)C(=O)C(=O)N2CCCC[C@H]2C(=O)O[C@H]([C@H](C)C[C@@H]2CC[C@@H](OCCO)[C@H](OC)C2)CC(=O)[C@H](C)/C=C(\C)[C@@H](O)[C@@H](OC)C(=O)[C@H](C)C[C@H](C)/C=C/C=C/C=C/1C [Everolimus] | active: -10.2 |
| CC(=O)OCC(=O)[C@@]1(O)CCC2C3CC[C@@H]4C[C@H](O)CC[C@]4(C)C3C(=O)C[C@@]21C (some centres undefined) | inactive: 3.31 |
| CNCCCC12CCC(c3ccccc31)c1ccccc12.Cl | inactive: -1.43 |
| CC(=O)O.CC1/C=C/C=C/C=C/C=C/C=C/C=C/C=C/C(O[C@@H]2O[C@H](C)[C@H](O)[C@@H](O)[C@@H]2N)CC(O)C(C(=O)O)C(O)CC(=O)CC(O)CC(O)CC(O)CC(=O)CCCC(=O)CC(=O)OC1C(C)CC(C)C(O)CC(=O)c1ccc(N)cc1 (some centres undefined) | inactive: 2.12 |
| CN1CC(O)C(O)C(O)C1CO (centres undefined) [N-Methyl-1-deoxynojirimycin] | inactive: 1.89 |
| O=C1NCN(c2ccccc2)C12CCN(CCCC(c1ccc(F)cc1)c1ccc(F)cc1)CC2 [Fluspirilene] | inactive: 1.97 |
| Oc1ccc([C@H]2Oc3cc(O)cc(O)c3C[C@H]2O)cc1 | inactive: 2.4 |
| CN(C)C(=O)/N=N/C(=O)N(C)C [N,N,N',N'-Tetramethylazodicarboxamide] | inactive: 1.91 |
| CC1(C)C[C@@H]2C(=O)CC[C@H]3O[C@]3(C)CC[C@H]21 | inactive: 1.66 |
| CCCCC1C(=O)N(c2ccccc2)N(c2ccccc2)C1=O [Phenylbutazone] | inactive: 4.55 |
| CCCCC1C(=O)N(c2ccccc2)N(c2ccccc2)C1=O | inactive: 2.82 |
| CC1(C)S[C@@H]2[C@H](NC(=O)[C@H](N)c3ccc(O)cc3)C(=O)N2[C@H]1C(=O)O.O.O.O [Amoxicillin trihydrate] | inactive: 3 |
| CC(C)C[C@H](NC(=O)[C@@H](O)[C@H](N)Cc1ccccc1)C(=O)O [Ubenimex (Bestatin)] | inactive: 1.36 |
| CC(O)(P(=O)([O-])O)P(=O)([O-])O.[Na+].[Na+] | inactive: 1.5 |
| Clc1ccc2c(c1)C(N1CCNCC1)=Nc1ccccc1O2 [Amoxapine] | inactive: 1.89 |

| Compound | cell-cell fusion (z-score) |
| --- | --- |
| Clc1ccc2c(c1)C(N1CCNCC1)=Nc1ccccc1O2 | inactive: -0.228 |
| CN(C)C(=O)[C@H](O)[C@H](Cc1ccccc1)NC(=O)c1cc2cc(Cl)ccc2[nH]1 | inactive: -1.09 |
| N=C(N)N.O=C(O)O | inactive: 4.64 |
| CCCC(=O)Nc1ncnc2c1ncn2C1O[C@@H]2COP(=O)(O)O[C@H]2[C@H]1OC(=O)CCC (some centres undefined) | inactive: 1.48 |
| Cc1cc(C(C#N)c2ccc(Cl)cc2)c(Cl)cc1NC(=O)c1cc(I)cc(I)c1O (centres undefined) | inactive: 2.05 |
| COc1ccc2c(c1)c(CC(=O)O)c(C)n2C(=O)c1ccc(Cl)cc1 [Indomethacin] | inactive: 2.97 |
| COc1ccc2c(c1)c(CC(=O)O)c(C)n2C(=O)c1ccc(Cl)cc1 | inactive: 1.7 |
| Cn1cnc2c(F)c(Nc3ccc(Br)cc3Cl)c(C(=O)NOCCO)cc21 [AZD6244 (Selumetinib)] | inactive: 0.995 |
| Cc1ccc(N(CC2=NCCN2)c2cccc(O)c2)cc1.Cl | inactive: 1.68 |
| CC(=O)Nc1ccc(C(=O)O)cc1 | inactive: 0.733 |
| CCOC(=O)[C@H](CCc1ccccc1)N[C@@H](C)C(=O)N1CCC[C@H]1C(=O)O.O=C(O)/C=C\C(=O)O [Enalapril Maleate] | inactive: 2.78 |
| C[N+]1(C)C2CC(OC(=O)[C@H](CO)c3ccccc3)CC1C1OC12.[Br-] (single isomer, unassigned; (-)) [(-)-Scopolamine methyl bromide] | inactive: -2.73 |
| CC(C)=CC1C(C(=O)OCc2cccc(Oc3ccccc3)c2)C1(C)C (centres undefined) | inactive: 2.44 |
| CCCCCOc1ccc(-c2cc(-c3ccc(C(=O)N[C@H]4C[C@@H](O)[C@@H](O)NC(=O)[C@@H]5[C@@H](O)[C@@H](C)CN5C(=O)[C@H]([C@H](O)CC(N)=O)NC(=O)[C@H]([C@H](O)[C@@H](O)c5ccc(O)c(OS(=O)(=O)[O-])c5)NC(=O)[C@@H]5C[C@@H](O)CN5C(=O)[C@H]([C@@H](C)O)NC4=O)cc3)no2)cc1.[Na+] [Micafungin sodium] | active: -11.3 |
| CC[C@H]1CN2CCC1C[C@@H]2[C@@H](O)c1ccnc2ccc(OC)cc12 (some centres undefined) | inactive: 1.81 |
| C[C@]12CCC(=O)C=C1CCC1C2[C@@H](O)C[C@@]2(C)C1CC[C@]2(O)C(=O)COC(=O)CCC(=O)O (some centres undefined) | inactive: 1.2 |
| O=C1CN2Cc3c(ccc(Cl)c3Cl)NC2=N1 [Anagrelide] | inactive: 2.82 |
| O=C(CCCl)NCc1ccccc1 | inactive: 1.66 |
| COC(=O)C[C@H]1C(C)(C)[C@@H](OC(C)=O)[C@@H]2CC3=C4CC(=O)O[C@@H](c5ccoc5)[C@]4(C)CCC3[C@@]1(C)C2=O (some centres undefined) | inactive: 2.45 |
| O=C(O)CCCc1ccc(N(CCCl)CCCl)cc1 | inactive: 1.02 |

Source: the supplement of paper PMC8104966
